Earlier results as cited in US20140037729A1, “COMBINATION OF AN OPIOID AGONIST AND AN OPIOID ANTAGONIST IN THE TREATMENT OF PARKINSON'S DISEASE” (Euro-Celtique, S.A., priority 2010, published 2014).

Tested on: parkinsonian patients
Conditions: at very low doses; Berg et al. 1999

In the case of `CN1CC[C@]23c4c5ccc(O)c4O[C@H]2[C@@H](O)C=C[C@H]3[C@H]1C5` [morphine], the dyskinetic movements is given as “decrease in dyskinetic movements”.
